PubChem BioAssay AID1224828 | NIAID | 2016

Assay: 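Find genes required for NF-kappaB p65 moving into the nucleus after LPS in mouse macrophages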 (primary screen)
Cells: mouse RAW264.7 G9 macrophage reporter cells (GFP-p65, Tnf promoter-mCherry)
Knock-down reagent: siRNA pool against mouse genes, 100 nM
Duration: 2 days siRNA transfection, then 40 min LPS before fixation
Conditions: LPS (Salmonella minnesota R595) at 10 ng/ml
Detection: 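Microscopy ratio of nuclear to perinuclear-ring GFP-p65 signal, scaled to the plate median; gene score is the average of two replicate robust z-scores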
Direction: p65 translocation robust z-score: higher = more nuclear NF-kappaB p65 after LPS than the plate median; nuclear/cytoplasmic p65 ratio: higher = more nuclear NF-kappaB p65
Call rule: 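Called active when z exceeds 3.3 or falls under -1.56 (median of Tlr4 controls), giving activity score of at least 50; no calls for control wells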
Calls: active = hit (p65 shift raised or lowered); inactive = no clear change
This is a random part of about 17,000 deposited reagents. 762 of them (4.5%) were called active. 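Active calls include both raised and lowered p65 entry, mostly lowered; wells with fewer than 50 cells lack a z-score.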 The raw values are shown without normalisation. A number with no mark means an inactive call.

| gene | p65 translocation robust z-score | nuclear/cytoplasmic p65 ratio, rep 1 | nuclear/cytoplasmic p65 ratio, rep 2 | low cell count flag |
| --- | --- | --- | --- | --- |
| Rhox4e (reproductive homeobox 4E) | 0.55 | 1.78 | 1.65 | enough cells to score |
| Mpdz (multiple PDZ domain crumbs cell polarity complex component) | 0.97 | 1.98 | 1.71 | enough cells to score |
| Apobec2 | 0.35 | 1.7 | 1.65 | enough cells to score |
| Or14c41 (olfactory receptor family 14 subfamily C member 41) | – | 1.42 | 1.27 | fewer than 50 cells per well; well left out of scoring |
| Dhx37 (DEAH-box helicase 37) | 0.04 | 1.55 | 1.58 | enough cells to score |
| Cdkl3 (cyclin dependent kinase like 3) | – | 1.6 | 1.6 | fewer than 50 cells per well; well left out of scoring |
| Serpina3m (serine (or cysteine) peptidase inhibitor, clade A, member 3M) | -0.14 | 1.33 | 1.29 | enough cells to score |
| Hsbp1 (heat shock factor binding protein 1) | 1.49 | 1.69 | 1.51 | enough cells to score |
| Thap7 (THAP domain containing 7) | 1.04 | 1.51 | 1.29 | enough cells to score |
| Pcdhb15 (protocadherin beta 15) | 2.17 | 1.88 | 1.36 | enough cells to score |
| Mast4 | 1.09 | 1.73 | 1.82 | enough cells to score |
| Mapkapk3 (mitogen-activated protein kinase-activated protein kinase 3) | 1.94 | 1.79 | 1.63 | enough cells to score |
| Mycn (Mycn proto-oncogene, bHLH transcription factor) | 0.28 | 1.54 | 1.4 | enough cells to score |
| Tslp (thymic stromal lymphopoietin) | 2.68 | 1.51 | 1.53 | enough cells to score |
| Vamp2 (vesicle-associated membrane protein 2) | – | 1.26 | 1.08 | fewer than 50 cells per well; well left out of scoring |
| Rpl36 (ribosomal protein L36) | -0.34 | 1.38 | 1.18 | enough cells to score |

The list goes on; the last 3 above are carried over.
| gene | p65 translocation robust z-score | nuclear/cytoplasmic p65 ratio, rep 1 | nuclear/cytoplasmic p65 ratio, rep 2 | low cell count flag |
| --- | --- | --- | --- | --- |
| Tslp (thymic stromal lymphopoietin) | 2.68 | 1.51 | 1.53 | enough cells to score |
| Vamp2 (vesicle-associated membrane protein 2) | – | 1.26 | 1.08 | fewer than 50 cells per well; well left out of scoring |
| Rpl36 (ribosomal protein L36) | -0.34 | 1.38 | 1.18 | enough cells to score |
| Fbxo25 (F-box protein 25) | 0.52 | 1.51 | 1.46 | enough cells to score |
| Ubxn8 (UBX domain protein 8) | 0.22 | 1.6 | 1.82 | enough cells to score |
| Rrp36 (ribosomal RNA processing 36) | 0.59 | 1.58 | 2.04 | enough cells to score |
| Or8s8 (olfactory receptor family 8 subfamily S member 8) | -0.75 | 1.46 | 1.33 | enough cells to score |
| Arl8a (ADP-ribosylation factor-like 8A) | -1.36 | 1.41 | 1.31 | enough cells to score |
| Slc22a6 | -0.89 | 1.27 | 1.17 | enough cells to score |
| Scd2 (stearoyl-Coenzyme A desaturase 2) | -1.22 | 1.22 | 1.08 | enough cells to score |
| Mark1 (MAP/microtubule affinity regulating kinase 1) | -1.19 | 1.5 | 1.23 | enough cells to score |
